# Experimental data taken from article PMC8654949.
# Chains of the proteins cited; added tags and fusions are not shown.
# UniProt A6NHR9: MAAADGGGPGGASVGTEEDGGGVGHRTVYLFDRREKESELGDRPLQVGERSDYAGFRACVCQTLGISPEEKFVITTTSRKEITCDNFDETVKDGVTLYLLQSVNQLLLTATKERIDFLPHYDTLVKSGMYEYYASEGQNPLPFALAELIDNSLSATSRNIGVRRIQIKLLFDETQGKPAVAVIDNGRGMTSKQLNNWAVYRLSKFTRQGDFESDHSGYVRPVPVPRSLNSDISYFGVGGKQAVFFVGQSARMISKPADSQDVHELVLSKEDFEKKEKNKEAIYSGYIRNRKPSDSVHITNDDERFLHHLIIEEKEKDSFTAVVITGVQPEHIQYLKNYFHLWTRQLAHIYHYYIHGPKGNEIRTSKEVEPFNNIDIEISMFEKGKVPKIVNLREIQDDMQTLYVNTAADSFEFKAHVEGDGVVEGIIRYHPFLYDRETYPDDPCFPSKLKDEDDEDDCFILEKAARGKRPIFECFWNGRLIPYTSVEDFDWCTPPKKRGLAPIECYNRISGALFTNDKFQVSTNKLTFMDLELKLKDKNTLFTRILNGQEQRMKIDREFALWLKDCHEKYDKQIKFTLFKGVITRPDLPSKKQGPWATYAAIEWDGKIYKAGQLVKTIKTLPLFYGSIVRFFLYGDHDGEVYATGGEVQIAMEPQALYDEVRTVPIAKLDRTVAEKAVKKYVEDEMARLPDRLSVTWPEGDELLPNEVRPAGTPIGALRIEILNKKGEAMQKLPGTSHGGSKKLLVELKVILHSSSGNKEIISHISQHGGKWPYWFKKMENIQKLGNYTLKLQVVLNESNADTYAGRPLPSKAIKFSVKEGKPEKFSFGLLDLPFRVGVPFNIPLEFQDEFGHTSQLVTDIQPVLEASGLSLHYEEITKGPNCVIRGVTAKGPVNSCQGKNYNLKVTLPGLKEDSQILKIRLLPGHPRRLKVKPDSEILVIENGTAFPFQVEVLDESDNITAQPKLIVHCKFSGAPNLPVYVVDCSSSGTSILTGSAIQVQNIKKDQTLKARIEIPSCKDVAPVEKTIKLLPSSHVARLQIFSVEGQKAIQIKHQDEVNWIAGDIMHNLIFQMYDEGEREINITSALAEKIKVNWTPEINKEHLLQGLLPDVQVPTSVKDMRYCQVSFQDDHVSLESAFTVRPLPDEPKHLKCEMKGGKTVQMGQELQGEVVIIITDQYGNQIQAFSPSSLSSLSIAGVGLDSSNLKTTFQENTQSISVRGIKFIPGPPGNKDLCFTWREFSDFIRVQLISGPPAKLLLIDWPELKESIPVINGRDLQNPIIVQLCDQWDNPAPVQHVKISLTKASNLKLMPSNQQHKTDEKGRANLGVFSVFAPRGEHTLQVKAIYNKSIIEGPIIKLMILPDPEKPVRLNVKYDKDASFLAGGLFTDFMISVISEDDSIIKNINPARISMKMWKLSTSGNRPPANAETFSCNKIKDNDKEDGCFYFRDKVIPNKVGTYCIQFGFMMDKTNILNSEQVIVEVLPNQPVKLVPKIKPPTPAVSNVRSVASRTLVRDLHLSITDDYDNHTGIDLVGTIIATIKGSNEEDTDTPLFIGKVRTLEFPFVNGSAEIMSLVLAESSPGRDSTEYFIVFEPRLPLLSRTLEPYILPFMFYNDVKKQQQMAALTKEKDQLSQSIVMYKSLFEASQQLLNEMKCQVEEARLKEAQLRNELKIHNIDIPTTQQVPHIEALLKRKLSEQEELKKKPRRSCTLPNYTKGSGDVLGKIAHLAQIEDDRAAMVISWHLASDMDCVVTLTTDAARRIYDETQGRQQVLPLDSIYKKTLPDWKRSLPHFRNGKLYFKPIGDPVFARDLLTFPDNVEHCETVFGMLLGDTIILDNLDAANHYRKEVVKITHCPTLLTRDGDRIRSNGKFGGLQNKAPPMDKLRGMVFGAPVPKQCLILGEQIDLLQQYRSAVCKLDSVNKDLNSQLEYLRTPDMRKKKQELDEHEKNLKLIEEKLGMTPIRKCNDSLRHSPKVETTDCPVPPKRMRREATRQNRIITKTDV
# UniProt O60216: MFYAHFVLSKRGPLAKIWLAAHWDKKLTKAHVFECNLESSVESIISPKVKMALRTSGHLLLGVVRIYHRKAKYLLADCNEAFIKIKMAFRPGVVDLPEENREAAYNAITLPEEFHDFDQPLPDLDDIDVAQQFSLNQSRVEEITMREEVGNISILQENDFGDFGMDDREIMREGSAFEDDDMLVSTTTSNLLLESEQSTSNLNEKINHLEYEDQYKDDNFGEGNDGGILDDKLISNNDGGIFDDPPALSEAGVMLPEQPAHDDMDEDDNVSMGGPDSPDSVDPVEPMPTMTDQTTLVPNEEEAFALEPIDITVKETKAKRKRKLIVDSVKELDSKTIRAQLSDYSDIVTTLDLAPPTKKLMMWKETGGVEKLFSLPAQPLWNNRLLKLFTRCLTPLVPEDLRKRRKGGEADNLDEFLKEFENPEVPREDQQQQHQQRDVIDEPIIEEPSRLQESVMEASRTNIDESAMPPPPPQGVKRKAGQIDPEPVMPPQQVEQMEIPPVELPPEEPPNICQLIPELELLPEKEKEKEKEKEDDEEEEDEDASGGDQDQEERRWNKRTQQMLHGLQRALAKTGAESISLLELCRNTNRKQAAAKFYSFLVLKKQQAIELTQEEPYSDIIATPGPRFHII
# UniProt Q9Y265: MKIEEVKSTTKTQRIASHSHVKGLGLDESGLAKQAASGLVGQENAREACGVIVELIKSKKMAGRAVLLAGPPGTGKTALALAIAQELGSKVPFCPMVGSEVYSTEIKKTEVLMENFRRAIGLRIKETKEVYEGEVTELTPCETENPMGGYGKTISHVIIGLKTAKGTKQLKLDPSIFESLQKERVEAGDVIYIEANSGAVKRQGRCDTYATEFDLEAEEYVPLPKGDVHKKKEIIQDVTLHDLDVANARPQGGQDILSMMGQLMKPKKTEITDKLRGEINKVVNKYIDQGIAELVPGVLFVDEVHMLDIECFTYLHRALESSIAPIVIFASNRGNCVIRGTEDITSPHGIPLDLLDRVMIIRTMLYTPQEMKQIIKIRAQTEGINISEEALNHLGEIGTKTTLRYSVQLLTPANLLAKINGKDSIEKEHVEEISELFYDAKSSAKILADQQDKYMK
# UniProt Q14676: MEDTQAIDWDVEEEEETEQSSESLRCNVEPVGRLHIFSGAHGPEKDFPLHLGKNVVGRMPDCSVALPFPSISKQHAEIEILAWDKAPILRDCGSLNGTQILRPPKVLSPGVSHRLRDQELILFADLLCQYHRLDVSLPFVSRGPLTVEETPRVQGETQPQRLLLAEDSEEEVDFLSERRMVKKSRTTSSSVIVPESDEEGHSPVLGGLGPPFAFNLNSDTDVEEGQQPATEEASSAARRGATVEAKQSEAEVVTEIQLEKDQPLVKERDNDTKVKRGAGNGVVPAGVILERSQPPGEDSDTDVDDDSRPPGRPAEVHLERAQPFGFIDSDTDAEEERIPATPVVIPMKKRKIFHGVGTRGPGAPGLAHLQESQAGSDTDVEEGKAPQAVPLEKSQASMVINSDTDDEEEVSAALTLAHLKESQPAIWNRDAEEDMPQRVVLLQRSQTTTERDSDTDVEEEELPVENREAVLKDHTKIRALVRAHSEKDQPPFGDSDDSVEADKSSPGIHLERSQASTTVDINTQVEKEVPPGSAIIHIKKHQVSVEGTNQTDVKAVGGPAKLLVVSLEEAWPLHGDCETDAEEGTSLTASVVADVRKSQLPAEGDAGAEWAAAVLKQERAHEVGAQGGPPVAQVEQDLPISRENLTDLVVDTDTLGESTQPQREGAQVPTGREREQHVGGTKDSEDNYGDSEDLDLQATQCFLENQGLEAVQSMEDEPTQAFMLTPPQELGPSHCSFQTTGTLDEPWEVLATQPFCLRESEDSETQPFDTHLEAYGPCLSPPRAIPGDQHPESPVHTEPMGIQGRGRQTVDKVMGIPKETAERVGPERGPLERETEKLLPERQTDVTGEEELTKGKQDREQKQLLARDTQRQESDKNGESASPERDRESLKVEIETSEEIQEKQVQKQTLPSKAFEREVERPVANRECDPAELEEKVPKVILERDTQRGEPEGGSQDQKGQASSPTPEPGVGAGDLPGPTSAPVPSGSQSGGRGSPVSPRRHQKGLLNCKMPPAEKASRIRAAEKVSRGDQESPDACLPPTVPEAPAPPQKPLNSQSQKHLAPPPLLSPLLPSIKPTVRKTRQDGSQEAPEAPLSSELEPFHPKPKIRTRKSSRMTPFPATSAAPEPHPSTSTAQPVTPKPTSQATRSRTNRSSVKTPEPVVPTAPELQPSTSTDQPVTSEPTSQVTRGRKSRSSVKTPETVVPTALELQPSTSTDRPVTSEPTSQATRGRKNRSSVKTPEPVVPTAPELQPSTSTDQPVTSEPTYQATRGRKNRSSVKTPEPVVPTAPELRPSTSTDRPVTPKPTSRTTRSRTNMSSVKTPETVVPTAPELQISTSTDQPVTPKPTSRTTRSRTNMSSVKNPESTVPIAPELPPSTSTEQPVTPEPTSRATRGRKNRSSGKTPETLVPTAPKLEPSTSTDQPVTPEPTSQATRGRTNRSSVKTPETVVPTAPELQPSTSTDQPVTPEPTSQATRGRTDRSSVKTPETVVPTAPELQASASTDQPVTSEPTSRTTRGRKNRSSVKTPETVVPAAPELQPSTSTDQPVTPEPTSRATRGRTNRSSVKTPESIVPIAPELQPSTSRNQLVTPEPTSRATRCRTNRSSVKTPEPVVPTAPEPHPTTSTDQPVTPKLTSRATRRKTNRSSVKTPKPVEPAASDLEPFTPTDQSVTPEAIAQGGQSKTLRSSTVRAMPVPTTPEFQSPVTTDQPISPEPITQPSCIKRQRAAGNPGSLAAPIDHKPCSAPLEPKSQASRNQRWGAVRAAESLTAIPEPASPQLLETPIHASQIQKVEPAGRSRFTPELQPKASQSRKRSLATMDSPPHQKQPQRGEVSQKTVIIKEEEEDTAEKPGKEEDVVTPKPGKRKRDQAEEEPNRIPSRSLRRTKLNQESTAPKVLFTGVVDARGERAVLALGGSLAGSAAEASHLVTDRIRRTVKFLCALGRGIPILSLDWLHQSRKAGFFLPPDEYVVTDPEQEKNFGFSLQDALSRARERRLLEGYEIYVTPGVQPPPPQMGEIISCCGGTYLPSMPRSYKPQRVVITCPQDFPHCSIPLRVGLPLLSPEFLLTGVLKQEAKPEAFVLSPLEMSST
# Results are given in words; binding and its absence hold for the method and conditions named. Binding seen in cells or lysates may run through a third protein. A yes stands for co-enrichment or nearness to the bait. Other partners may have been found.
# Target: GFP-SMCHD1 (GFP-tagged Structural Maintenance of Chromosomes Hinge Domain Containing 1) (human) (UniProt A6NHR9)
# Experiment: affinity purification with mass spectrometry; SILAC-MS; GFP-Trap agarose beads on nuclear lysates of U2OS clones stably expressing GFP-SMCHD1 against GFP-only U2OS control; NP40 lysis buffer (50 mM Tris-HCl pH 8.0, 150 mM NaCl, 1% NP-40, 1 mM MgCl2), sonicated, Benzonase; washes up to 300 mM NaCl; 8 replicates with label swap; H/L ratio > 1.5 taken as candidate
row,binding,Substance
1,binds,RAD21 (cohesin complex component) (from UniProt O60216 1-631)
2,binds,"RuvB Like AAA ATPase 1 (RUVBL1), endogenous (from UniProt Q9Y265 1-456)"
3,binds,mediator of DNA damage checkpoint 1 (MDC1) (from UniProt Q14676 1-2089)
